Data as given in PubChem BioAssay AID1159584 (Peter MacCallum Cancer Centre, 2016).
Aim: 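Genes whose loss is lethal only together with E-cadherin loss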 (primary screen). System: human MCF10A breast epithelial cells, parental and CDH1-null. Reagent: siRNA against human genes. Measured: 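ATP luminescence (CellTiter-Glo) viability per line relative to mean mock wells over all plates, and the ratio of CDH1-null to parental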. Scale: CDH1-null / parental viability ratio: higher = CDH1-null cells survive relatively better than parental.
In all, the deposit lists about 18,000 reagents; below is an unselected part. Not all columns of the deposit are shown. Reagent sequences are not shown. The record does not give: the amount of reagent, the time to read-out.

With knock-down of FOSL2 (FOS like 2, AP-1 transcription factor subunit), the record shows CDH1-null / parental viability ratio 1.04.
After knock-down of RASA1 (RAS p21 protein activator 1) the results were CDH1-null / parental viability ratio 0.67.
For SUN3 (Sad1 and UNC84 domain containing 3) the deposit lists CDH1-null / parental viability ratio 1.02.
LPAR6 (lysophosphatidic acid receptor 6) gave CDH1-null / parental viability ratio 1.29.
Silencing of PHACTR3 (phosphatase and actin regulator 3) resulted in: CDH1-null / parental viability ratio 1.25.
After knock-down of TSNAX (translin associated factor X) the results were CDH1-null / parental viability ratio 1.18.
Depletion of SP1 (Sp1 transcription factor) resulted in: CDH1-null / parental viability ratio 0.91.
BRIP1 (BRCA1 interacting DNA helicase 1) showed CDH1-null / parental viability ratio 1.
After knock-down of IDO1 (indoleamine 2,3-dioxygenase 1), the record shows CDH1-null / parental viability ratio 1.09.
Against DUOXA1 (dual oxidase maturation factor 1) the deposit lists CDH1-null / parental viability ratio 0.92.
Against BAZ1B (bromodomain adjacent to zinc finger domain 1B), the entry reads CDH1-null / parental viability ratio 0.98.
For CAVIN3 (caveolae associated protein 3), the values are CDH1-null / parental viability ratio 1.1.
Knock-down of APOL5 (apolipoprotein L5) came out at: CDH1-null / parental viability ratio 1.09.
SGSH (N-sulfoglucosamine sulfohydrolase) scored CDH1-null / parental viability ratio 1.06.
TTC9C (tetratricopeptide repeat domain 9C) showed CDH1-null / parental viability ratio 0.67.
NFKBIE (NFKB inhibitor epsilon) gave CDH1-null / parental viability ratio 0.9.
PIAS2 (protein inhibitor of activated STAT 2) gave CDH1-null / parental viability ratio 0.9.
With knock-down of HID1 (HID1 domain containing), the record shows CDH1-null / parental viability ratio 1.1.
After knock-down of MEIS2 (Meis homeobox 2) the results were CDH1-null / parental viability ratio 0.9.
Knock-down of SAAL1 (serum amyloid A like 1) resulted in: CDH1-null / parental viability ratio 1.25.
Against DHX16 (DEAH-box helicase 16), the values are CDH1-null / parental viability ratio 0.89.
ATF6B (activating transcription factor 6 beta) gave CDH1-null / parental viability ratio 0.98.
After knock-down of TNRC6A (trinucleotide repeat containing adaptor 6A) the results were CDH1-null / parental viability ratio 1.07.
Against SRCAP (Snf2 related CREBBP activator protein), the entry reads CDH1-null / parental viability ratio 0.87.
WDR74 (WD repeat domain 74) gave CDH1-null / parental viability ratio 1.
For RASAL2 (RAS protein activator like 2) the deposit lists CDH1-null / parental viability ratio 1.1.
Against TAFA3 (TAFA chemokine like family member 3), the entry reads CDH1-null / parental viability ratio 0.9.
HOXC13 (homeobox C13) gave CDH1-null / parental viability ratio 1.02.
After knock-down of NUP133 (nucleoporin 133), the record shows CDH1-null / parental viability ratio 1.05.
For IL20 (interleukin 20) the deposit lists CDH1-null / parental viability ratio 0.93.
Knock-down of GYG1 (glycogenin 1) came out at: CDH1-null / parental viability ratio 0.85.
Knock-down of GLA (galactosidase alpha) came out at: CDH1-null / parental viability ratio 1.06.
GLYAT (glycine-N-acyltransferase) gave CDH1-null / parental viability ratio 0.97.
With knock-down of MVB12B (multivesicular body subunit 12B) the results were CDH1-null / parental viability ratio 0.84.
After knock-down of DEF6 (DEF6 guanine nucleotide exchange factor), the record shows CDH1-null / parental viability ratio 0.83.

Entries above whose gene name starts with A or a:
APOL5 (apolipoprotein L5) | CDH1-null / parental viability ratio: 1.09
ATF6B (activating transcription factor 6 beta) | CDH1-null / parental viability ratio: 0.98
